Taken from: PubChem BioAssay AID1259298 (Sanger Institute, 2017)
Assay: 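Kinase knock-downs that cut colorectal cancer cell viability or act with targeted drugs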 (primary screen). Cells: HT55 human colorectal cancer cell line. Knock-down reagent: siRNA pool against human genes. Treatment: anchor drug BYL719 1 µM, cetuximab 5 µg/ml or trametinib 10 nM, or DMSO vehicle alone. Detection: 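Replicate-averaged viability versus wells of non-targeting pool; knock-down-only robust z-score; per-drug synergy score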. Reading the numbers: robust z-score, knock-down alone: higher = more cells remaining; low means essential gene; viability vs control pool, no drug: higher = more viable cells. Units: viability vs control pool, no drug in fraction. Hit rule: 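a gene counts as essential if its knock-down-alone robust z-score falls under -3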. Calls: active = essential (knock-down alone); inactive = no change alone.
The deposit covers 794 reagents; below is a random part of them. Of all reagents, 20 (2.5%) were called active. 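Calls rest only on the knock-down-alone score; drug synergy scores played no part in them.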 Viability is capped at 1. Not all columns of the deposit are shown. Not given: the amount of reagent, the time to read-out.

BRDT (bromodomain testis associated)
- robust z-score, knock-down alone: 0.58
- viability vs control pool, no drug: 1
- call: inactive

TNNI3K (TNNI3 interacting kinase)
- robust z-score, knock-down alone: 0.58
- viability vs control pool, no drug: 1
- call: inactive

HK1 (hexokinase 1)
- robust z-score, knock-down alone: -0.748
- viability vs control pool, no drug: 0.896
- call: inactive

PIK3R1 (phosphoinositide-3-kinase regulatory subunit 1)
- robust z-score, knock-down alone: 0.0746
- viability vs control pool, no drug: 0.961
- call: inactive

CHEK1 (checkpoint kinase 1)
- robust z-score, knock-down alone: -3.25
- viability vs control pool, no drug: 0.7
- call: active

ACVR2B (activin A receptor type 2B)
- robust z-score, knock-down alone: 0.58
- viability vs control pool, no drug: 1
- call: inactive

TSSK3 (testis specific serine kinase 3)
- robust z-score, knock-down alone: 0.58
- viability vs control pool, no drug: 1
- call: inactive

CDK3 (cyclin dependent kinase 3)
- robust z-score, knock-down alone: 0.58
- viability vs control pool, no drug: 1
- call: inactive

PTK2 (protein tyrosine kinase 2)
- robust z-score, knock-down alone: -1.62
- viability vs control pool, no drug: 0.828
- call: inactive

Next part; the last 2 above are carried over.
CDK3 (cyclin dependent kinase 3)
- robust z-score, knock-down alone: 0.58
- viability vs control pool, no drug: 1
- call: inactive

PTK2 (protein tyrosine kinase 2)
- robust z-score, knock-down alone: -1.62
- viability vs control pool, no drug: 0.828
- call: inactive

FES (FES proto-oncogene, tyrosine kinase)
- robust z-score, knock-down alone: -0.908
- viability vs control pool, no drug: 0.884
- call: inactive

SOX9 (SRY-box transcription factor 9)
- robust z-score, knock-down alone: 0.58
- viability vs control pool, no drug: 1
- call: inactive

UCK2 (uridine-cytidine kinase 2)
- robust z-score, knock-down alone: 0.58
- viability vs control pool, no drug: 1
- call: inactive

PAK4 (p21 (RAC1) activated kinase 4)
- robust z-score, knock-down alone: 0.58
- viability vs control pool, no drug: 1
- call: inactive

MAPK11 (mitogen-activated protein kinase 11)
- robust z-score, knock-down alone: 0.58
- viability vs control pool, no drug: 1
- call: inactive

BMX (BMX non-receptor tyrosine kinase)
- robust z-score, knock-down alone: 0.58
- viability vs control pool, no drug: 1
- call: inactive

NEK3 (NIMA related kinase 3)
- robust z-score, knock-down alone: -0.0953
- viability vs control pool, no drug: 0.947
- call: inactive

PRKAB1 (protein kinase AMP-activated non-catalytic subunit beta 1)
- robust z-score, knock-down alone: -0.485
- viability vs control pool, no drug: 0.917
- call: inactive

HIPK1 (homeodomain interacting protein kinase 1)
- robust z-score, knock-down alone: 0.58
- viability vs control pool, no drug: 1
- call: inactive

STK26 (serine/threonine kinase 26)
- robust z-score, knock-down alone: 0.58
- viability vs control pool, no drug: 1
- call: inactive

PMVK (phosphomevalonate kinase)
- robust z-score, knock-down alone: 0.58
- viability vs control pool, no drug: 1
- call: inactive

FRK (fyn related Src family tyrosine kinase)
- robust z-score, knock-down alone: -0.968
- viability vs control pool, no drug: 0.879
- call: inactive

PKIA (cAMP-dependent protein kinase inhibitor alpha)
- robust z-score, knock-down alone: -0.364
- viability vs control pool, no drug: 0.926
- call: inactive

LMTK3 (lemur tail kinase 3)
- robust z-score, knock-down alone: 0.0138
- viability vs control pool, no drug: 0.956
- call: inactive

LRRK2 (leucine rich repeat kinase 2)
- robust z-score, knock-down alone: 0.58
- viability vs control pool, no drug: 1
- call: inactive

PPP2R1A (protein phosphatase 2 scaffold subunit Aalpha)
- robust z-score, knock-down alone: 0.58
- viability vs control pool, no drug: 1
- call: inactive

RAF1 (Raf-1 proto-oncogene, serine/threonine kinase)
- robust z-score, knock-down alone: -1.36
- viability vs control pool, no drug: 0.848
- call: inactive

MAPK1 (mitogen-activated protein kinase 1)
- robust z-score, knock-down alone: 0.379
- viability vs control pool, no drug: 0.984
- call: inactive

CDK16 (cyclin dependent kinase 16)
- robust z-score, knock-down alone: 0.58
- viability vs control pool, no drug: 1
- call: inactive
